In PMC6290345:
These are yes or no findings as the source states them, for the method shown. Some binding calls cover weakened binding; strength is not graded here. Where a sequence is shown, tags or fusion partners need not be part of it.

Chains of the proteins cited; added tags and fusions are not shown.
UniProt Q9Y2H1: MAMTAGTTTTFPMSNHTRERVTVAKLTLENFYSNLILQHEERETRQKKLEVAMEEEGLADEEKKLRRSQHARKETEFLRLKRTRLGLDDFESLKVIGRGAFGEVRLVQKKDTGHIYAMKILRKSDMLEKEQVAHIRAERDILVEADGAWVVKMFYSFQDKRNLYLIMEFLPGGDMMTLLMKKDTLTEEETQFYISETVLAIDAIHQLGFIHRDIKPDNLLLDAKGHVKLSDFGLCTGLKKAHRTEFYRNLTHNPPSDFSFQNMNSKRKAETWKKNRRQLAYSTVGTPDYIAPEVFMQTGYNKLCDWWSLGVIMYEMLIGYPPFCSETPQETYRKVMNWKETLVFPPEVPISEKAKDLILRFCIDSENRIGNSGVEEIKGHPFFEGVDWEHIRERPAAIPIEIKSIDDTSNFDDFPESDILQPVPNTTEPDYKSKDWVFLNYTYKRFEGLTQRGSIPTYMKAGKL
UniProt Q15208: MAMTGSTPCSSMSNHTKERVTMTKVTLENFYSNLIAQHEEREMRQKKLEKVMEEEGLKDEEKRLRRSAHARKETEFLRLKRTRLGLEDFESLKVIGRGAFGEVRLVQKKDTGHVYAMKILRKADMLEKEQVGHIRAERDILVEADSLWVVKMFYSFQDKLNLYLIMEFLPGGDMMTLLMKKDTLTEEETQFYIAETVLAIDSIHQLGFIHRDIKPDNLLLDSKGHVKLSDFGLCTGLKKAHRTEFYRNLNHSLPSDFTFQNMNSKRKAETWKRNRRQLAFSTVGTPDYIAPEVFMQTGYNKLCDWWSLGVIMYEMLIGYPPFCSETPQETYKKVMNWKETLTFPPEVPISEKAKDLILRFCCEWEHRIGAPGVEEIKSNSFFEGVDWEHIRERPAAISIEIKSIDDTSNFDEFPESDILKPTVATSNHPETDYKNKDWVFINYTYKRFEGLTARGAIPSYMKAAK

Assays:
[1] = target: FLAG-tagged wild type Ndr2 (human) (UniProt Q9Y2H1); assay: co-purification of a co-expressed complex; FLAG-tagged Ndr/GFP-Mob2 complexes isolated from HEK 293T cells as in ref. 42 and used soluble for kinase reactions on a peptide library
FLAG-tagged Ndr1 (human) = FLAG-tagged Ndr1 (human) (UniProt Q15208); assay: as above

B1: GFP-Mob2 (protein, UniProt Q70IA6 1-237)
chain: MDWLMGKSKAKPNGKKPAAEERKAYLEPEHTKARITDFQFKELVVLPREIDLNEWLASNTTTFFHHINLQYSTISEFCTGETCQTMAVCNTQYYWYDERGKKVKCTAPQYVDFVMSSVQKLVTDEDVFPTKYGREFPSSFESLVRKICRHLFHVLAHIYWAHFKETLALELHGHLNTLYVHFILFAREFNLLDPKETAIMDDLTEVLCSGAGGVHSGGSGDGAGSGGPGAQNHVKER
binding [1]: binds | binding (FLAG-tagged Ndr1 (human)): binds
